Drawing on PubChem BioAssay AID2685 (National Center for Advancing Translational Sciences (NCATS), 2010), this text covers cell number change and AC50 for 36 compounds.

This is one part of the list. Further columns of the screen follow, without active or inactive calls. Compounds called inactive in the main read-out are mostly missing here. Potencies come from curve fits of mixed quality, noted in brackets.

The experiment is described as follows: qHTS Assay for Lipid Storage Modulators in Drosophila S3 Cells.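 For cell number change: cells counted by Cell Tracker Red CMTPX staining in the red channel.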 Conditions: BODIPY lipid droplet fluorescence, 18-24 h; for cell number change: measured here: cell count max response, cells fed with added oleic acid. In outline: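 Laser-scanning cytometry quantifies lipid droplet accumulation (500–530 nm total intensity; droplet/cell object ratio) in oleic acid-fed (400 uM added) Drosophila S3 cells treated with a concentration series. 20 uM Triacsin C defined 100% inhibition.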
(qHTS replaces the single test concentration by a dilution series.)

Setting [1] is: measured here: lipid fluorescence (Fed channel) AC50, cells fed with added oleic acid.
[2] abbreviates: measured here: cell number channel AC50, cells fed with added oleic acid.

The term AC50 denotes the concentration at which the activity in the assay is half-maximal. Low values mean activity at low concentration, high ones activity only at high concentration.

`COC(=O)c1ccc(NC(=O)Nc2ccc3c(c2)OCO3)cc1`: the cell number change was -1.81%. For the same compound, under setting [1], the AC50 was 31.6 µM [rising, single point].

Turning to `COc1ccc(-n2nnnc2S(=O)(=O)CC(=O)N2CCCCC2)cc1`, the cell number change was -64.3%. In addition, under setting [2], the concentration at half-maximal activity (AC50) is 23.1 µM [falling, single point]. Besides, the AC50 under setting [1] was 1.84 µM [falling, partial curve].

Turning to `CC(=O)N1CCCc2cc(S(=O)(=O)CCC(=O)N3CCN(c4ccccc4)CC3)ccc21`, the cell number change amounted to 7.64%. In addition, the concentration at half-maximal activity (AC50) under setting [1] is 2.91 µM [rising, single point].

For the compound `O=C(Nc1nc2cc3c(cc2s1)OCCO3)c1ccco1`, the cell number change is -20.8%.

For `COc1ccc(OC)c2[nH]c(=O)c(CCNC(=O)C(C)C)cc12`, the cell number change came to 60.2%. The AC50 under setting [2] was 7.31 µM [rising, partial curve]. The concentration at half-maximal activity (AC50) under setting [1] is 7.31 µM [rising, partial curve].

On to `CC(C)OC(=O)CSc1ncnc2c1cnn2-c1ccccc1`, for which the cell number change was 120%. Under setting [2], the AC50 is 14.6 µM [rising, partial curve, poor fit]. Also, under setting [1], the AC50 is 0.651 µM [rising, partial curve, poor fit].

Take `Cc1ccc(C(=O)NCC(=O)OCc2cccc(Br)c2)cc1`: the cell number change came to 78.3%. Also, the concentration at half-maximal activity (AC50) under setting [2] is 29.1 µM [rising, single point]. Besides, the AC50 under setting [1] is 6.51 µM [falling, partial curve, poor fit].

Consider `Cc1ccc(C(=O)CC2(O)C(=O)Nc3ccccc32)s1` (stereo not given), for which the cell number change is -151%. Also, the AC50 under setting [2] is 20.6 µM [falling, partial curve]. Besides, the AC50 under setting [1] was 23.1 µM [falling, partial curve].

Consider `S=C(c1ccc(-c2ccc(Cl)cc2)o1)N1CCCCC1`, for which the cell number change was -58.6%. For the same compound, the AC50 under setting [2] was 5.8 µM [falling, partial curve]. In addition, the half-maximal activity concentration (AC50) under setting [1] was 6.51 µM [falling, full curve].

As for `NC(=O)c1ccsc1NC(=O)c1ccc2c(c1)CCCC2`, under setting [1], the half-maximal activity concentration (AC50) is 0.58 µM [rising, full curve].

For the compound `CN(Cc1ccccc1)S(=O)(=O)c1ccc(NC(=O)C2CCCO2)cc1` (stereo not given), the cell number change stood at 1.46%.

Take `CCC(Sc1nc2sc(C(=O)OC)c(C)c2c(=O)n1N)C(=O)NCC1CCCO1` (stereo not given): the AC50 was 6.51 µM [rising, single point] under setting [2] and 4.61 µM [rising, partial curve] under setting [1].

With `COc1ccc(C)cc1S(=O)(=O)N1CCCC(C(=O)NCc2ccccn2)C1` (stereo not given), the cell number change was found to be 6.74%. The AC50 under setting [1] is 5.17 µM [rising, single point].

Consider `CCCn1c(N)c(C(=O)CN(C)CC(=O)Nc2cccc(F)c2)c(=O)[nH]c1=O`, for which the cell number change came to 2.61%. Under setting [1], the AC50 was 0.164 µM [falling, single point].

For `COc1ccc(C2(c3ccc(OC)cc3)NC(=O)N(CC(=O)NCC(C)c3ccccc3)C2=O)cc1` (stereo not given), the cell number change is -16.7%.

In the case of `Cn1c(=O)cc(OCC(=O)N2CCN(c3cccc(C(F)(F)F)c3)CC2)c2ccccc21`, the cell number change worked out at 6.71%.

`CC(C)c1nnc(SCc2ccc(CSc3nnc(C(C)C)n3N)cc2)n1N`: the cell number change was -35.5%. The half-maximal activity concentration (AC50) under setting [2] is 14.6 µM [falling, partial curve, poor fit]. The AC50 under setting [1] is 0.0058 µM [falling, full curve, poor fit].

Turning to `CN(C)[C@@H]1C(=O)C(C(N)=O)=C(O)[C@@]2(O)C(=O)C3=C(O)c4c(O)ccc(Cl)c4[C@@H](O)[C@H]3C[C@@H]12`, the cell number change was found to be 12%. Moreover, the AC50 under setting [2] was 6.51 µM [rising, single point].

For the compound `COc1ccc(CC(=O)N2CCN=C2SC)cc1`, the cell number change came to 11.7%. In addition, the AC50 under setting [1] was 0.146 µM [falling, full curve, poor fit].

Regarding `CC(C)(C)c1nc[nH]c(=O)c1Br`, the cell number change was 137%. The AC50 under setting [2] was 29.1 µM [rising, partial curve, poor fit]. Besides, the concentration at half-maximal activity (AC50) under setting [1] is 0.00461 µM [falling, full curve, poor fit].

Regarding `CCC(C)[C@H](NC(=O)C1CC(=O)N(c2ccc(OC)cc2)C1)C(=O)NC1CCCC1` (stereo not given in full), the cell number change was -11.8%. Under setting [1], the AC50 was 0.651 µM [rising, partial curve, poor fit].

As for `COc1ccc(CCNC(=O)c2ccc(OC)c(OC)c2)cc1OC`, the AC50 under setting [1] is 29.1 µM [rising, single point].

In the case of `Nc1nc(CSCc2ccccc2)nc(N2CCOCC2)n1`, the cell number change worked out at 1.15%. The half-maximal activity concentration (AC50) under setting [1] was 29.1 µM [rising, single point].

For the compound `O=C(COC(=O)C1CCC1)Nc1ccccc1Sc1ccccc1`, the cell number change turned out to be 6.96%. The AC50 under setting [1] is 14.6 µM [rising, partial curve, poor fit].

Take `COc1ccc(Nc2nc3c(C)cccn3c(=O)c2C=O)cc1`: the cell number change is -6.94%.

For the compound `CCOc1ccccc1N1CCN(Cc2ccc(OC)c(OC)c2OC)CC1`, the cell number change is -21.6%. In addition, the concentration at half-maximal activity (AC50) under setting [1] was 6.51 µM [falling, partial curve].

With `CCC(C)N(C(=O)CSc1ncnc2sccc12)C1CCS(=O)(=O)C1` (stereo not given), the cell number change was found to be 4.14%. Besides, the AC50 under setting [2] was 0.58 µM [falling, full curve]. The AC50 under setting [1] was 0.92 µM [falling, full curve].

For `Cc1ccc(C)c(Nc2ncccc2C(=O)NCc2cccs2)c1`, the cell number change came out at 34.1%. Further, under setting [2], the AC50 is 29.1 µM [rising, single point]. Besides, under setting [1], the concentration at half-maximal activity (AC50) is 0.58 µM [falling, partial curve].

Consider `NC(=O)N(N)c1nc(N2CCCC2)nc(N2CCCC2)n1`, for which the cell number change was -12.5%. Also, under setting [1], the AC50 was 18.4 µM [rising, single point].

Consider `CCOCCCN(C(=O)c1snc(C(N)=O)c1N)C(C(=O)NC1CCCC1)c1ccc(O)cc1` (stereo not given), for which the cell number change worked out at 8.26%. Besides, the AC50 under setting [1] was 14.6 µM [falling, partial curve].

On to `COc1ccc(C(=O)N2CCN(C(=O)C3COc4ccccc4O3)CC2)cc1OC` (stereo not given), for which the cell number change turned out to be 12.5%. Moreover, the AC50 under setting [1] was 13 µM [rising, partial curve].

As to `CS(=O)(=O)N(CC(=O)NCc1ccc2c(c1)OCO2)Cc1ccccc1`, the cell number change was 3.31%. Besides, the half-maximal activity concentration (AC50) under setting [1] was 3.26 µM [rising, single point].

Take `Cc1cccc(C(=O)NCCC(=O)Nc2nc(C)c(Cc3ccc4c(c3)OCO4)s2)c1`: the cell number change was -37.1%. Besides, under setting [2], the half-maximal activity concentration (AC50) is 18.4 µM [falling, single point]. Besides, the AC50 under setting [1] is 4.11 µM [falling, full curve, poor fit].

`CC(C)c1ccc(CNc2ccc(N3CCOCC3)cc2)cc1`: the cell number change is -89.4%.

On to `C=CCn1c(=O)c2ccccc2n2c(SCc3nc(N)nc(Nc4ccccc4C)n3)nnc12`, for which the cell number change was 23.6%. Also, the half-maximal activity concentration (AC50) under setting [2] was 0.00517 µM [rising, full curve, poor fit].

In the case of `CCOC(=O)c1cccc(NC(=O)CCn2nc(C)c(S(=O)(=O)N3CCCCC3)c2C)c1`, the cell number change is 6.45%. The AC50 under setting [1] was 1.03 µM [rising, partial curve].
